Source: patent US6982082B1 (President and Fellows of Harvard College, priority 1996, dated 2006)

Test: general procedure: solution-phase peptide synthesis; PyAop

Q: With “Fmoc-CpSar-MeBmt-Abu-Sar-MeLeu-Val-MeLeu-Ala-D-Ala-MeLeu-Meleuvalinol ester” as the substance, how does the step yield (coupling step) read?
A: 99%

Q: With “HNMe-CpSar-MeBmt-Abu-Sar-MeLeu-Val-MeLeu-Ala-D-Ala-MeLeu-Meleu-OH” as the substance, how does the step yield (late stage modification step) read?
A: 59%
